Experimental data reported in publication PMC11078956, “Structural investigation of interactions between halogenated flavonoids and the lipid membrane along with their role as cytotoxic agents” (Scientific Reports, 2024).

Experiments:
[1] = ATR-FTIR of MODEL lipid membranes with compounds; settings: MODEL membrane, 50 μM, dry film, 37 °C
[2] = DLS size, PDI and zeta potential of MODEL liposomes; settings: compound 30 μM, 2 h, 37 °C
[3] = FT-Raman of MODEL lipid membranes with compounds; settings: MODEL membrane, 50 μM; for asymmetric CH3 stretching frequency: control 2955
[4] = FT-Raman of MIMIC lipid membranes with compounds; settings: MIMIC membrane, 50 μM
[5] = DPH probe fluorescence anisotropy in MIMIC liposomes; settings: MIMIC membrane, 10-50 μM, 37 °C; D6 particularly at 50 μM, D4 only at the highest concentration

Compound	symmetric stretching of PO2− groups, wavenumber [1]	PDI of liposomes [2]	Size of liposomes [2]	redshift of symmetric PO2− stretching [1]	C–C stretching frequency [3]	asymmetric and symmetric CH2 stretching frequencies [3]	asymmetric CH3 stretching frequency [3]	asymmetric CH3 stretching frequency [4]	ζ potential of liposomes [2]	deformation of CH frequency [3]	DPH anisotropy change [5]	symmetric CH3 stretching frequency [4]
O=c1cc(-c2ccccc2Cl)oc2ccccc12 [D1, 2′-chloroflavone]	approximately 1091 cm^−1	0.38 ± 0.03	195.27 ± 7.01 nm									
O=c1cc(-c2cccc(Cl)c2)oc2ccccc12 [D2, 3′-chloroflavone]		0.41 ± 0.06	200.8 ± 2.97 nm	1 cm⁻¹	1145 cm⁻¹	2888 cm⁻¹	2947 cm⁻¹					
O=c1cc(-c2ccc(Cl)cc2)oc2ccccc12 [D3, 4′-chloroflavone]	approximately 1091 cm^−1	0.42 ± 0.08	229.7 ± 6.65 nm					2941 cm⁻¹	0.80 ± 0.11 mV			
O=c1cc(-c2ccccc2)oc2ccc(Cl)cc12 [D4, 6-chloroflavone]		0.45 ± 0.02	239.48 ± 9.09 nm						0.31 ± 0.04 mV			
O=c1cc(-c2ccccc2)oc2c(Cl)cc(Cl)cc12 [D5, 6,8-dichloroflavone]	approximately 1091 cm^−1	0.65 ± 0.08	177.86 ± 15.85 nm						0.50 ± 0.04 mV	1267 cm⁻¹		
O=c1cc(-c2ccccc2)oc2c(Br)cc(Cl)cc12 [D6, 8-bromo-6-chloroflavone]		0.50 ± 0.06	239.83 ± 3.40 nm	2 cm⁻¹		2888 cm⁻¹	2948 cm⁻¹		0.38 ± 0.09 mV	1266 cm⁻¹	reduction in anisotropy values	2914 cm⁻¹
